# According to PMC10497826:
# Amino acid sequences for entries named in this document (tags omitted).
# UniProt P46379: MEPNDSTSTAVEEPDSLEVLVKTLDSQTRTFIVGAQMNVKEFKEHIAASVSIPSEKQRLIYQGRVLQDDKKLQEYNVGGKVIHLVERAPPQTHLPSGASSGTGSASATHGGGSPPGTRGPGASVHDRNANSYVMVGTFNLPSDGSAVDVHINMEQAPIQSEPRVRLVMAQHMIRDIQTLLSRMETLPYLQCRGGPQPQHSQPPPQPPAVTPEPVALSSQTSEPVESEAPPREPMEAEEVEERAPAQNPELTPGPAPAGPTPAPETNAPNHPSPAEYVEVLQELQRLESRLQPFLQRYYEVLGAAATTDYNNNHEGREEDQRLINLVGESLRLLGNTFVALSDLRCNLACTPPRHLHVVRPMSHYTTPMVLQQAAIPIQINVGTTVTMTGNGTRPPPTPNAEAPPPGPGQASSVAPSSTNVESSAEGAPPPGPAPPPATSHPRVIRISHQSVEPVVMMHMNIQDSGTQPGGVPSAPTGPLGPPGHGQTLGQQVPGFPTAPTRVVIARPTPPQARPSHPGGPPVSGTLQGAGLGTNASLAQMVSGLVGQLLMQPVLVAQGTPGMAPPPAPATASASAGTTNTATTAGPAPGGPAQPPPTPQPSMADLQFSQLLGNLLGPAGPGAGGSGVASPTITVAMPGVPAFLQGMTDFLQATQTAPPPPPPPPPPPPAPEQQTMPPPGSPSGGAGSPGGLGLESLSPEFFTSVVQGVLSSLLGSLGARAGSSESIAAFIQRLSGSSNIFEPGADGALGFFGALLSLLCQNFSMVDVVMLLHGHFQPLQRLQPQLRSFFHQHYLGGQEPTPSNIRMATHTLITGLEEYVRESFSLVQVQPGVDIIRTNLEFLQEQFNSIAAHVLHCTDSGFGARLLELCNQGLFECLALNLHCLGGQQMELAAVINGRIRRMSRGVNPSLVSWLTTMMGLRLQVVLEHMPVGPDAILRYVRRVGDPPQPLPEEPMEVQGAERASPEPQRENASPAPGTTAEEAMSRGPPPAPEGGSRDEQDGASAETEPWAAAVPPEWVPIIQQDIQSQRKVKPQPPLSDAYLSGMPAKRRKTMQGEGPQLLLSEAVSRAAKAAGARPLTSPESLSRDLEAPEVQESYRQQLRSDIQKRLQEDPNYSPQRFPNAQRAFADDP
# UniProt P10415: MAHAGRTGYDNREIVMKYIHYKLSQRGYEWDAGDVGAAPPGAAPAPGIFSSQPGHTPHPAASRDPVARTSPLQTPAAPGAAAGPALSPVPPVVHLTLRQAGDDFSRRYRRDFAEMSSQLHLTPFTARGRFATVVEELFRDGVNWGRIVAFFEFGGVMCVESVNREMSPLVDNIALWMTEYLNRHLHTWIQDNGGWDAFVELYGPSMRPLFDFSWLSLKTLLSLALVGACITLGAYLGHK
# Molecular target: Flag-tagged BAG6 (in HEK-293T) (UniProt P46379)
# Assay: affinity purification with mass spectrometry; immunoprecipitation of BAG6 from HEK-293T cells consistently overexpressing Flag-tagged BAG6, mass spectrometry
substance,measurement,value
"BCL2 (B-cell lymphoma 2), endogenous in HEK-293T (from UniProt P10415 1-239)",binding,binds

# Results are given in words; binding and its absence hold for the method and conditions named. Binding seen in cells or lysates may run through a third protein. A yes stands for co-enrichment or nearness to the bait. Other partners may have been found.
